The record followed here is the supplement of paper PMC3741180, “A Novel High Throughput Biochemical Assay to Evaluate the HuR Protein-RNA Complex Formation” (PLoS ONE, 2013).

By UniProt entry, the sequences of proteins in these tests, tags left out.
UniProt Q15717, whole entry: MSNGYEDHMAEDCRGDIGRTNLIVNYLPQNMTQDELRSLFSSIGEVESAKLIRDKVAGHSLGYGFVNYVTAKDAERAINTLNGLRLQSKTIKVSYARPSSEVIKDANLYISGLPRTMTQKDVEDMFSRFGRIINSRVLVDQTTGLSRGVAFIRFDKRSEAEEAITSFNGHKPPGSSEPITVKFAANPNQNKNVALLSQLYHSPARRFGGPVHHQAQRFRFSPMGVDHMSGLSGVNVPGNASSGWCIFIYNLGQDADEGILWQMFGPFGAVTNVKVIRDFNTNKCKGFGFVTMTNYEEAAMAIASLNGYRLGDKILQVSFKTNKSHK

This is one part of the list. Single values are uncertain here, since repeats match poorly.

This assay addresses HuR (ELAVL1) - TNFalpha ARE RNA complex (UniProt Q15717). Put plainly: AlphaScreen HuR-RNA complex signal Z-score relative to positive (Bi-TNF, DMSO) controls (Z-score (SD units of positive control)); higher = more complex signal. The settings on record: screen stage: primary screen; compound concentration: 25 nM. In general terms: In Alpha technology, singlet oxygen from a donor bead excites a nearby acceptor bead.
Take `COc1cc2c(cc1O)CCN[C@@H]2C`: the “AlphaScreen HuR-RNA complex signal Z-score” value was found to be 1.93.
As for `C[C@@H]1C[C@@H]([C@H](O)CC2CC(=O)NC(=O)C2)C(=O)[C@@H](C)C1`, the figure is 0.159; as for `COc1cc2c(cc1OC)[C@@H]1C(=O)c3ccc4c(c3O[C@@H]1CO2)CC(C(C)C)O4` (stereo not given in full), 2.12.
As for `COc1ccc2c(c1OC)C(=O)O[C@H]2[C@H]1c2cc3c(cc2CCN1C)OCO3`, the figure is 2.09; as for `CC[C@@H](CO)NC(=O)[C@@H]1C=C2c3cccc4[nH]cc(c34)C[C@H]2N(C)C1`, 3.71; as for `CCCCOC(=O)c1ccccc1C(=O)OCCCC`, 0.311.
Regarding `C=CCc1cc(OC)c2c(c1OC)OCO2`, the “AlphaScreen HuR-RNA complex signal Z-score” value was found to be 1.51.
With `C[N+]1(C)CCc2cc3c(cc2[C@H]1[C@@H]1OC(=O)c2c1ccc1c2OCO1)OCO3`, the “AlphaScreen HuR-RNA complex signal Z-score” value was found to be 1.98.
As for `CCC(C)C(=O)OC1CC2(C)C(c3ccoc3)OC(=O)CC23OC2(C)OC34C(OC(=O)C(C)C)C3(O)C(OC(=O)C5(C)OC5C)C5(C)CC3(O)C(C)(C5CC(=O)OC)C14O2` (stereo not given), the figure is -4.89; as for `c1cncc([C@@H]2CCCCN2)c1`, 1.59.
In the case of `CC(C)(O)[C@@H]1[C@H]2OC(=O)[C@@H]1[C@]1(O)C[C@H]3O[C@]34C(=O)O[C@H]2[C@]14C`, the “AlphaScreen HuR-RNA complex signal Z-score” value is 2.18.
For the molecule `CC(C)(C#N)O[C@@H]1O[C@H](CO)[C@@H](O)[C@H](O)[C@H]1O`, the “AlphaScreen HuR-RNA complex signal Z-score” value worked out at 1.55.
For the molecule `CC(=O)O[C@H]1C(=O)[C@@]2(C)[C@H]([C@H](OC(=O)c3ccccc3)[C@]3(O)C[C@H](O)C(C)=C1C3(C)C)[C@]1(OC(C)=O)CO[C@@H]1C[C@@H]2O`, the “AlphaScreen HuR-RNA complex signal Z-score” value is 0.473.
Turning to `C=C(C)[C@H]1Cc2c(ccc3c(=O)c4c(oc23)COc2cc(OC)c(OC)cc2-4)O1`, the “AlphaScreen HuR-RNA complex signal Z-score” value amounted to 2.36.
Turning to `CC(=O)O[C@H]1[C@H]2[C@@H](OC(=O)Cc3ccccc3)[C@@H](C)C[C@]2(OC(C)=O)C(=O)/C(C)=C/[C@@H]2[C@H](CC[C@@]13CO3)C2(C)C`, the “AlphaScreen HuR-RNA complex signal Z-score” value came to 2.52.
Take `NC(=O)c1cc([N+](=O)[O-])cc([N+](=O)[O-])c1`: the “AlphaScreen HuR-RNA complex signal Z-score” value was 3.36.
For the molecule `COc1ccc2c(c1O)-c1c(OC)c(OC)cc3c1[C@H](C2)N(C)CC3`, the “AlphaScreen HuR-RNA complex signal Z-score” value was 1.78.
The value for `O=C1CC[C@@]2(O)[C@H]3Cc4ccc(O)c5c4[C@@]2(CCN3CC2CC2)[C@H]1O5` was 0.723.
Regarding `C=CCSSCC=C`, the “AlphaScreen HuR-RNA complex signal Z-score” value came to 1.52.
As for `CC(=O)[C@H]1CC[C@H]2[C@@H]3CC[C@H]4C[C@H](O)CC[C@]4(C)[C@H]3CC[C@]12C`, the figure is 0.648; as for `NCC(CC(=O)O)c1ccc(Cl)cc1` (stereo not given), 0.358; as for `CC(NC(C)(C)C)C(=O)c1cccc(Cl)c1` (stereo not given), -2.69.
As to `O=C(O)CCCO`, the “AlphaScreen HuR-RNA complex signal Z-score” value was -3.21.
As for `CN[C@@H](C)[C@@H](O)c1ccccc1`, the figure is 4.12.
The value for `CN1[C@@H]2C[C@@H](OC(=O)[C@H](CO)c3ccccc3)C[C@H]1[C@@H]1O[C@@H]12` was 3.25.
The value for `C[C@@H]1O[C@@H](O[C@H]2CC[C@]3(C=O)[C@H]4CC[C@]5(C)[C@@H](C6=CC(=O)OC6)CC[C@]5(O)[C@@H]4CC[C@]3(O)C2)[C@H](O)[C@H](O)[C@H]1O` was 2.06; that for `CC1(C)C2CC(=O)[C@]3(C)C(CC[C@@]4(C)[C@H](c5ccoc5)OC(=O)C5OC543)[C@@]2(C)[C@@H](O)C[C@H]1O` (stereo not given in full) was 2.37; that for `ClC(Cl)=C(c1ccc(Cl)cc1)c1ccc(Cl)cc1` was 0.956.
For the molecule `COC1=C[C@@H]2[C@@H]3Cc4ccc(OC)c(O)c4[C@]2(CCN3C)CC1=O`, the “AlphaScreen HuR-RNA complex signal Z-score” value came out at 2.48.
The value for `CCOC(=O)C1C(C=C(C)C)C1(C)C` (stereo not given) was 2.39; that for `O=C1C=CC(=O)c2ccccc21` was 3.2; that for `CCC(C)C(=O)O[C@@H]1C[C@@]2(C)[C@H](c3ccoc3)OC(=O)CC23OC2(C)O[C@]14[C@]1(C)[C@@H](CC(=O)OC)C5(C)CC1(O)[C@](O)(C5OC(=O)C1(C)OC1C)[C@@H](OC(C)=O)[C@]34O2` (stereo not given in full) was 1.3.
The value for `CN1C[C@H](C(=O)N[C@]2(C)O[C@@]3(O)[C@@H]4CCCN4C(=O)[C@H](Cc4ccccc4)N3C2=O)C=C2c3cccc4[nH]cc(c34)C[C@H]21` was -0.319; that for `CNc1ccccc1C(=O)O` was 0.548.
The value for `C[C@@H]1C(=O)O[C@H]2[C@H]1CC[C@@]1(C)C=CC(=O)[C@@]3(C)O[C@@]213` [EPOXY (4,5alpha)-4,5-DIHYDROSANTONIN] was 0.903; that for `COP(=O)(OC)C(O)C(Cl)(Cl)Cl` (stereo not given) was 3.38; that for `CNC1CC(N)C(O)C(OC2OC(CO)C(O)C3OC4(OC(C(N)CO)C(O)C(O)C4O)OC23)C1O` (stereo not given) was 2.36.
For the molecule `C=CCc1ccc2c(c1)OCO2`, the “AlphaScreen HuR-RNA complex signal Z-score” value was -0.27.
As for `CCCC(C)C1(CC)C(=O)NC(=O)NC1=O` (stereo not given), the figure is 3.73.
As for `C[C@H]1CC[C@]2(NC1)O[C@H]1C[C@H]3[C@@H]4CC[C@H]5C[C@@H](O)CC[C@]5(C)[C@H]4CC[C@]3(C)[C@H]1[C@@H]2C`, the figure is 2.05; as for `COP(=O)(OC)OC=C(Cl)Cl`, 0.315; as for `S=C=NCc1ccccc1`, 1.81.
As for `C[C@]12CCC(=O)C=C1C=C[C@@H]1[C@@H]2CC[C@@]2(C)[C@H]1CC[C@@]2(O)CCC(=O)O`, the figure is -2.2; as for `CO[C@H]1[C@H](O)[C@H](O[C@H]2CC[C@@]3(C=O)[C@H](CC[C@@H]4[C@@H]3CC[C@]3(C)[C@@H](C5=CC(=O)OC5)CC[C@]43O)C2)O[C@@H](C)[C@@H]1O`, 1.49.
On to `CC(=O)O[C@@H]1[C@H]2CC[C@H]3[C@@](C)(O)[C@@H]4C[C@H](O)C(C)(C)[C@@]4(O)[C@H](O)C[C@@]13C[C@@]2(C)O`, for which the “AlphaScreen HuR-RNA complex signal Z-score” value worked out at 1.69.
